These are yes or no findings as the source states them, for the method shown. In cells and extracts the contact can be indirect. Some results given as binding are weak or reduced against the parent protein; the word gives no strength.
Target: serine/arginine-rich splicing factor (SRSF) protein kinase-1 (human (endogenous in LCC2)) (UniProt Q96SB4)
Assay: co-IP; SRPK1 immunoprecipitated from LCC2 lysate with anti-SRPK (sc-100443) at 4 °C overnight, Dynabead Protein A; Co-IP buffer 20 mM Tris-Cl pH 7.4, 150 mM NaCl, 0.5% NP-40, 10% glycerol; Western blot with anti-SRPK1 and anti-SRSF5

The chains behind the UniProt entries cited, without tags or fusion partners.
UniProt Q96SB4: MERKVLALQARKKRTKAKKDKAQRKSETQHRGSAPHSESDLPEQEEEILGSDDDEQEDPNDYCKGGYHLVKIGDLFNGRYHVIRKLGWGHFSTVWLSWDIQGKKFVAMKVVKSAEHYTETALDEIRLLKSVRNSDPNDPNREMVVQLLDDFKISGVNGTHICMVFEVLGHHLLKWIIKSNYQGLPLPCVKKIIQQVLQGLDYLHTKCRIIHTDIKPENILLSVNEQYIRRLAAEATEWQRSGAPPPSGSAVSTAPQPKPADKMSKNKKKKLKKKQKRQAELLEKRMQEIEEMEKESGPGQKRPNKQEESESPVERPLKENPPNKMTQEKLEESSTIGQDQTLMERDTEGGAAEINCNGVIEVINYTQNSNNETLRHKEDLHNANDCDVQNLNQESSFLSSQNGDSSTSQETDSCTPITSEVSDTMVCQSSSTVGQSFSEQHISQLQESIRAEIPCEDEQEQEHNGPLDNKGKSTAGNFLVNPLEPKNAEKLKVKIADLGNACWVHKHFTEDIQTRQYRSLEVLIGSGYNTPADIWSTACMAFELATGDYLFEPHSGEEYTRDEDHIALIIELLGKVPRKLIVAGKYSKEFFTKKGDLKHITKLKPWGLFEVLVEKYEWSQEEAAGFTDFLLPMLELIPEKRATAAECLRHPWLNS

B1: SRSF5 (protein, UniProt Q13243 1-272)
chain: MSGCRVFIGRLNPAAREKDVERFFKGYGRIRDIDLKRGFGFVEFEDPRDADDAVYELDGKELCSERVTIEHARARSRGGRGRGRYSDRFSSRRPRNDRRNAPPVRTENRLIVENLSSRVSWQDLKDFMRQAGEVTFADAHRPKLNEGVVEFASYGDLKNAIEKLSGKEINGRKIKLIEGSKRHSRSRSRSRSRTRSSSRSRSRSRSRSRKSYSRSRSRSRSRSRSKSRSVSRSPVPEKSQKRGSSSRSKSPASVDRQRSRSRSRSRSVDSGN
binding: binds
